Measurements reported in US20050043235A1.
Results are given in words; binding and its absence hold for the method and conditions named. Some binding calls cover weakened binding; strength is not graded here.

Sequences of proteins named here, by UniProt entry; tags and fusion partners are left off. Residues count along the entry.
UniProt P35916, residues 25-329: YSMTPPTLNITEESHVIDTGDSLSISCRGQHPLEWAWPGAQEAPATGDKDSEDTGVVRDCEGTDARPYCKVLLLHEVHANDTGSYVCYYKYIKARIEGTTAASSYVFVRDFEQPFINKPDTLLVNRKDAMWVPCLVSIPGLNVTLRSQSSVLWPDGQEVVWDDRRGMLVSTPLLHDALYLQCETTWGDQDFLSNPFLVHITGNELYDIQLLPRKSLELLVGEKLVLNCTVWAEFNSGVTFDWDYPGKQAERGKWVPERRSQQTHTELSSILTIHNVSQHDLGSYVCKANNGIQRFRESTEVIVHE
UniProt P35968, residues 20-764: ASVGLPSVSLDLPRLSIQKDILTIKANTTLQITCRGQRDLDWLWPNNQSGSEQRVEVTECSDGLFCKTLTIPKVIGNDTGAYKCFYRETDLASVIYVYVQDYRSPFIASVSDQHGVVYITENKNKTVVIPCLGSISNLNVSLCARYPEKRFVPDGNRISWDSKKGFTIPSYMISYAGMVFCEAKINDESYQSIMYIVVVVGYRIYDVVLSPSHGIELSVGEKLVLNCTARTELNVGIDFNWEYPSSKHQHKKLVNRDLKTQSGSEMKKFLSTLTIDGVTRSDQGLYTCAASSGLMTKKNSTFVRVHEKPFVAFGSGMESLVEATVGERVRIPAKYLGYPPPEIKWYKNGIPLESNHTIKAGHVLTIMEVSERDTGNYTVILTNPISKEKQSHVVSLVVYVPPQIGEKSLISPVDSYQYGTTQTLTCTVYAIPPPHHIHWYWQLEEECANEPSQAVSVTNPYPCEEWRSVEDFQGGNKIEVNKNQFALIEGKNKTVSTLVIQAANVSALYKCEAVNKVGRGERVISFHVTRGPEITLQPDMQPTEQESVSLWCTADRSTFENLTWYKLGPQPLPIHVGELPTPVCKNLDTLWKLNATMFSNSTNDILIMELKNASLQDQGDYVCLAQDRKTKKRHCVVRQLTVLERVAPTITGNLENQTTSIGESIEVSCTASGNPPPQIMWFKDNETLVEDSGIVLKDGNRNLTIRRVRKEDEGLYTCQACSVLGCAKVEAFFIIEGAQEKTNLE

T1: neuropilin-1-Ig (UniProt O14786)
T1 sequence (looked up): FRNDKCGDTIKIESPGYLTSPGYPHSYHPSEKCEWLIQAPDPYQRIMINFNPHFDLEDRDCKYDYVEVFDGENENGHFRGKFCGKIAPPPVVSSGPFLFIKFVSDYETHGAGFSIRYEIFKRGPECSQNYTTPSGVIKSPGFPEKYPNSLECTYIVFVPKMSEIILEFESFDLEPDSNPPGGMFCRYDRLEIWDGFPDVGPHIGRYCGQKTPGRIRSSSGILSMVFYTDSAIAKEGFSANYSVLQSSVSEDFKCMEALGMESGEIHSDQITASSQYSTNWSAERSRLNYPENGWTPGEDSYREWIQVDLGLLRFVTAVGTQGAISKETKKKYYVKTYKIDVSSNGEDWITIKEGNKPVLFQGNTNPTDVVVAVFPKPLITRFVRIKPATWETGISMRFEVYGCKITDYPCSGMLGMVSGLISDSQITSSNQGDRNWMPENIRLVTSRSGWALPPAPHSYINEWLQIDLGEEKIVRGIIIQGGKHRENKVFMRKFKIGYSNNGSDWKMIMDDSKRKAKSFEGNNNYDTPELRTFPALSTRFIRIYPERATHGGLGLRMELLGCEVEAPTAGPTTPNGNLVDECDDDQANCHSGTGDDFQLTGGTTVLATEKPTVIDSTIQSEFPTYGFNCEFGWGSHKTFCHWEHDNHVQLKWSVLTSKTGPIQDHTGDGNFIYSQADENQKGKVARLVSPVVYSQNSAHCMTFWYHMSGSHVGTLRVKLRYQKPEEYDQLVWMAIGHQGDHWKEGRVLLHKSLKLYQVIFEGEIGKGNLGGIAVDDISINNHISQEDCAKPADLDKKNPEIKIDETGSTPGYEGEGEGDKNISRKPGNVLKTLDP

T2: neuropilin-2-Ig (UniProt O60462)
T2 sequence (looked up): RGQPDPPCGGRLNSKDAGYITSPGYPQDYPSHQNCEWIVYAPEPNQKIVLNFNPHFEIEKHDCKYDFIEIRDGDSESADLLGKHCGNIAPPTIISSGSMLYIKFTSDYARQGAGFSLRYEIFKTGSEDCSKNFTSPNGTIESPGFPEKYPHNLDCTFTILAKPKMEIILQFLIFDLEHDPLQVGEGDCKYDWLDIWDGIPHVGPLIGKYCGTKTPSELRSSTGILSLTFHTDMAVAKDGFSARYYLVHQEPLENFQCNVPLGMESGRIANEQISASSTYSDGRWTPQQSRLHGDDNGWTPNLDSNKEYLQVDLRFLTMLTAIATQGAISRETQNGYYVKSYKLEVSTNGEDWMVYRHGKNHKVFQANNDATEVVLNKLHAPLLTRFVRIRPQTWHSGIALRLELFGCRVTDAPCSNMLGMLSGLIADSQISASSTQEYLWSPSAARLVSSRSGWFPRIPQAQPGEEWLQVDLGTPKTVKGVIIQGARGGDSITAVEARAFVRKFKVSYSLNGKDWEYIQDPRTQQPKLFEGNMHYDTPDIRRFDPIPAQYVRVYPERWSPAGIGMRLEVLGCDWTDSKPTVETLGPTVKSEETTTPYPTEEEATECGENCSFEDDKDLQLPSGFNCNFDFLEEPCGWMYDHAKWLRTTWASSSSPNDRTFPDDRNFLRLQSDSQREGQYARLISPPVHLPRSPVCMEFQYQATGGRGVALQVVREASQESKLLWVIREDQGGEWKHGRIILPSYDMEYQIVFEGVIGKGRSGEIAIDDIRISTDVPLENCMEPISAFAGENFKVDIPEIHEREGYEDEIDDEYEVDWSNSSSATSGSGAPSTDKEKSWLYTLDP


Assays:
neuropilin-1-Ig [1] = molecular target: T1, neuropilin-1-Ig; test: precipitation of 35S-labelled protein from 293T medium with neuropilin-1-Ig, SDS-PAGE (FIG. 5A)
[2] = molecular target: soluble VEGFR-3-Ig fusion protein (UniProt P35916); test: receptor binding profile (precipitation with receptor-Ig), summary of Example 12
[3] = molecular target: soluble VEGFR-2-Ig fusion protein (UniProt P35968); test: as above
neuropilin-1-Ig [4] = molecular target: T1, neuropilin-1-Ig; test: as above
[5] = molecular target: soluble VEGFR-3-Ig fusion protein (UniProt P35916); test: precipitation of 35S-labelled protein from 293T medium with VEGFR-3-Ig, SDS-PAGE (FIG. 5B)
[6] = molecular target: soluble VEGFR-2-Ig fusion protein (UniProt P35968); test: precipitation of 35S-labelled protein from 293T medium with VEGFR-2-Ig, SDS-PAGE (FIG. 5B)
neuropilin-2-Ig = molecular target: T2, neuropilin-2-Ig; test: precipitation of 35S-labelled protein from 293T medium with neuropilin-2-Ig, SDS-PAGE (FIG. 5A)

Row | binding (neuropilin-1-Ig [1]) | binding [2] | binding [3] | binding (neuropilin-1-Ig [4]) | binding [5] | binding [6] | binding (neuropilin-2-Ig) | Binder
1 | binds | binds | binds | binds | binds | binds | binds | CA89, chimeric protein of the VEGF homology domain of VEGF-C and VEGF exon 6-8 encoded sequences (ligand) TEETIKFAAAHYNTEILKSIDNEWRKTQCMPREVCIDVGKEFGVATNTFFKPPCVSVYRCGGCCNSEGLQCMNTSTSYLSKTLFEITVPLSQGPKPVTISFANHTSCRCMSKLDVYRQVHSIIRRKSVRGKGKGQKRKRKKSRYKSWSVPCGPCSERRKHLFVQDPQTCKCSCKNTDSRCKARQLELNERTCRCDKPRR
2 | binds | binds | binds | binds | binds | binds | binds | CA65, chimeric protein of the VEGF homology domain of VEGF-C and VEGF exon 7-8 encoded sequences (ligand) TEETIKFAAAHYNTEILKSIDNEWRKTQCMPREVCIDVGKEFGVATNTFFKPPCVSVYRCGGCCNSEGLQCMNTSTSYLSKTLFEITVPLSQGPKPVTISFANHTSCRCMSKLDVYRQVHSIIRRPCGPCSERRKHLFVQDPQTCKCSCKNTDSRCKARQLELNERTCRCDKPRR
